# Experimental data published in PubChem BioAssay AID1347426 (Functional Genomics Laboratory (NCATS/FGL), 2020).
# The whole screen tested about 31,000 sequences, of which about 1,400 (4.5%) were called active.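 The calls were made as follows: active = median seed-adjusted z-score above 1 or below -1; inactive = the rest.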 Some of the results follow.
# Assay: Novel Modifiers of Survival Motor Neuron (SMN) Protein: Gene Identification via Genome-wide siRNA Screen;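 also: luminescence tracks full-length SMN protein made from the SMN2 reporter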
# Settings: HEK293T SMN2-luciferase reporter, siRNA knockdown, 72 h; actives lie on both sides
# Outline: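 Luciferase signal, proportional to full-length SMN made from an SMN2 cDNA reporter in stable HEK293T cells, was read 72 h after siRNA reverse transfection. Values were expressed as MAD scores after non-targeting-control normalization and log10 conversion; seed analysis flagged off-targets.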
row,Sequence,median seed-adjusted z-score
1,AGCUGGAUAUGUUCCCAGATT against DAO,inactive: -0.00887
2,GACCAGAUGUGGACAAUCATT against TAF6,active: -1.36
3,GCAUAUCUGAGGUGAAUCATT against SEC23B,inactive: 0.48
4,UGACCGAUGUCUUCCUUAUTT against RHOQ,inactive: -0.328
5,GAACAUCCUGUUUCGCUUUTT against GAL3ST3,inactive: -0.54
6,UCACAGGCUUUGAAACCAATT against ADCK4,inactive: -0.181
7,CUCAAGUAAUCAUUCCCAATT against HOMER2,inactive: 0.522
8,GUCACAAGAUGGUCAAAAATT against CTNND2,inactive: -0.0491
9,GUGACAAAACUGACGUGAATT against IL1R2,inactive: 0.429
10,GCUUGUUGUUUGGUAUUCATT against CYP7B1,inactive: 0.598
11,CAUUGUCUUUGCUUACAUUTT against GRIA3,inactive: -0.358
12,CUUCCUUCCCUAUUAAAAUTT against HLA-A,inactive: 0.189
13,GCAGAGUCACAGGAACUCATT against TRIM26,inactive: 0
14,CAUGCUGAACGUAAACUAUTT against CEACAM1,inactive: -0.211
15,GCAACAUAAUGAAAUCACUTT against MMP14,inactive: -0.0145
16,GGUGGACCAUGUCAACGAUTT against GLIS2,inactive: 0.206
17,CAGCACACGUCAUUUCUUATT against GPR44,inactive: -0.527
18,GAGUUUUUCUAUGACAUCATT against RPH3A,inactive: 0.232
19,GGAGGUACGUGGAAAAGCATT against ORC3L,inactive: -0.254
20,GGCUCGUCAUUGGAGGUGATT against TRAF1,inactive: 0.518
21,CAAUAAAACUGACUCUCAATT against ETFB,inactive: 0.0669
22,UGCCCGUCAUUGUCAACAATT against KCNC3,inactive: 0.279
23,AGAGAUGCUGGAACCUUUUTT against PCDHB13,inactive: -0.293
24,GACCUACCCAUGUUAUUCATT against HIVEP2,inactive: 0.294
25,GGCGCAUUAUGUGCUACUATT against GPR44,inactive: -0.527
26,GGCCGAUAUGGAGAAGUAUTT against BMPR1A,inactive: 0.797
27,CGAAAACAGGAGAUCAUUATT against CAMK2G,inactive: -0.107

# A stretch of the results above, as a working copy:
row,Sequence,median seed-adjusted z-score
10,GCUUGUUGUUUGGUAUUCATT against CYP7B1,inactive: 0.598
11,CAUUGUCUUUGCUUACAUUTT against GRIA3,inactive: -0.358

# (further entries)

row,Sequence,median seed-adjusted z-score
1,GGUUGUAACUGCAAGAUCATT against TIMP3,active: -1.05
2,GGCGGCAAGACGUAAGGAATT against SEMA3B,inactive: 0.000251
3,AGAUCCUGGAAUAUAUAAATT against MSRB3,inactive: -0.218
4,CAGACUACCCUGAUAGUUUTT against FLVCR1,inactive: 0.197
5,CGGCUAGAGAUGAUCGCUATT against UBE3A,inactive: 0.0949
6,GGCAACAAGUCAAGGAUAATT against PSPH,inactive: -0.518
7,GGAUGAUCGUCAUUGGUCUTT against DDX23,inactive: -0.468
8,GUCAUUUUCUGGAUUAAUUTT against P2RY12,inactive: 0.143
9,GGUCUACAGGCUAUCGAUATT against ARL10,inactive: -0.455
10,AGCACAAGCGGGAGAUUUATT against DNAJB2,inactive: 0
11,GCUUCAACCAUUGACAGUUTT against FCGR2A,inactive: -0.19
12,GGACCUCUUCUACACGGAATT against RASGRP4,inactive: 0.162
13,GAGUGUGAGUUCUACUUCATT against PLOD3,inactive: -0.258
14,GAAAUCUACUCUAAAACCATT against RFC2,inactive: 0.00126
15,GGAAAGUUUUUAAGGCGAATT against UHRF2,inactive: -0.0941
16,GCAGCUCUGUGCGAAUGUUTT against FBLN5,inactive: -0.0832
17,GGAACAGCGCAGUACGUUUTT against PDPK1,inactive: 0.0807
18,UCUUUUAUCUGUUCCUCCATT against OGG1,inactive: -0.128
19,GGAGGAAUGUCGUCCUGAUTT against SCD5,inactive: -0.167
20,GAAAGAUGUUGGGAAUAAATT against ST6GAL2,inactive: 0.054
21,CUGUUGGUAUUGUCCACAATT against MAL,inactive: 0.0733
22,GGAGUCAGCAUCUACCUAATT against SLC22A6,inactive: 0.135
23,GCGCAGCUCUGGAAUUUGATT against OXCT2,inactive: -0.449
24,GUCCAAGCCUUAAACAUCATT against IDS,inactive: -0.074
25,CUACGUCUCUUAUCGUCGATT against SORCS2,inactive: 0.648
26,AGUACUACCUGGACCUCAATT against PURB,inactive: 0
